Assay results taken from the supplement of paper PMC10849652.
The other results are listed elsewhere or left out.

The chains behind the UniProt entries cited, without tags or fusion partners. Where a name states a change or a piece, a line headed by the entry shows the natural chain unless it says otherwise.
UniProt Q8NHG7: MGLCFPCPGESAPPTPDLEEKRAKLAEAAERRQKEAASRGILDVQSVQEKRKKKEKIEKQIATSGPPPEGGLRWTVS
UniProt P08842: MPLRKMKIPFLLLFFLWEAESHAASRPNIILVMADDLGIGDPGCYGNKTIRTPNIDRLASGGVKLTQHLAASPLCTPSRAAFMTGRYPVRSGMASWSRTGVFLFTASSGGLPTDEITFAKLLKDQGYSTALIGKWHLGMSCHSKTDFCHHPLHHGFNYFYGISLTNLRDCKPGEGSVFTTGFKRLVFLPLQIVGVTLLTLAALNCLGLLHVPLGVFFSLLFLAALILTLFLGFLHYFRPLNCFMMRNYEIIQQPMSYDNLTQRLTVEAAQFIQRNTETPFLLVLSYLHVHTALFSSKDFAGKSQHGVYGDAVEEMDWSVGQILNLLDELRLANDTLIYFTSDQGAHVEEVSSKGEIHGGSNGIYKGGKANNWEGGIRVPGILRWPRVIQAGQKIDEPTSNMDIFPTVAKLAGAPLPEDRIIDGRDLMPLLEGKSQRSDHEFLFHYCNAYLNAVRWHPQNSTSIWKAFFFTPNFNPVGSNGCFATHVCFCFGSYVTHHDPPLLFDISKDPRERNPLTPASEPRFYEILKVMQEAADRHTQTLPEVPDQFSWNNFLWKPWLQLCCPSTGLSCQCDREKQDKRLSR
UniProt A2RTX5: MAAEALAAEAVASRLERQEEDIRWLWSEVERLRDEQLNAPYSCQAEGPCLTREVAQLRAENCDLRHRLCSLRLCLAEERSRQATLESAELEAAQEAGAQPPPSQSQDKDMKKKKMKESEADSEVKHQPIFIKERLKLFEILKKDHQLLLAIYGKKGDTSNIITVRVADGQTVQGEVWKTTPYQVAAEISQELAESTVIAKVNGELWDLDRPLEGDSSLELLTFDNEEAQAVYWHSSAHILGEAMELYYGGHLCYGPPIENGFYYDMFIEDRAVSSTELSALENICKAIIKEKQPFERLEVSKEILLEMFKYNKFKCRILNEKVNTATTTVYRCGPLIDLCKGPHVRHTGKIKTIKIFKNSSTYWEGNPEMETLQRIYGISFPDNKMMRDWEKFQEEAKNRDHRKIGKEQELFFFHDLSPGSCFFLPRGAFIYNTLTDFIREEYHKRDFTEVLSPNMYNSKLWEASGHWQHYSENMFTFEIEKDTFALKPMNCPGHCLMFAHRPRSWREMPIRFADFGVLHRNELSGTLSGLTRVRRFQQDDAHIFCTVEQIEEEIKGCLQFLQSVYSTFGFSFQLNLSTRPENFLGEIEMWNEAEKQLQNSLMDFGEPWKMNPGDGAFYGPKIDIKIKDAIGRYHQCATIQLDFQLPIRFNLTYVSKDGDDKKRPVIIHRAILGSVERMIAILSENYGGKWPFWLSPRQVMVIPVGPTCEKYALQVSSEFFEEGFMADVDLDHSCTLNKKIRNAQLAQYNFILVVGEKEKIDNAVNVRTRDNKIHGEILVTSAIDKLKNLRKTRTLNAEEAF
UniProt P17542, whole entry, looked up: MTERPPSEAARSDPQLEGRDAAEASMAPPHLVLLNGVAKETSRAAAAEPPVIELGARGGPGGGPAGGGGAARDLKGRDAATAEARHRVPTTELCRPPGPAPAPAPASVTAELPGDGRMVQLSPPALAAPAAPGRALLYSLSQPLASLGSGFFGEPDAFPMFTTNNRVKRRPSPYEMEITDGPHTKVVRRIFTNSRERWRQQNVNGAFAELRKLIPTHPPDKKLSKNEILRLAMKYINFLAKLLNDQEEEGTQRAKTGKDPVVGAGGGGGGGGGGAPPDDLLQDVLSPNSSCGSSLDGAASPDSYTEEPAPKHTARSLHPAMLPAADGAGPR
UniProt Q16514: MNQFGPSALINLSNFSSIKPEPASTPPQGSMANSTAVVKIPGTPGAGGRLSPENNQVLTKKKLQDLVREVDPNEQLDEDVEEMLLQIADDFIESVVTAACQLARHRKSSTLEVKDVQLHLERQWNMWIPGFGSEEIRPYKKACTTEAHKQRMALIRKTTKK
UniProt Q9UBI4: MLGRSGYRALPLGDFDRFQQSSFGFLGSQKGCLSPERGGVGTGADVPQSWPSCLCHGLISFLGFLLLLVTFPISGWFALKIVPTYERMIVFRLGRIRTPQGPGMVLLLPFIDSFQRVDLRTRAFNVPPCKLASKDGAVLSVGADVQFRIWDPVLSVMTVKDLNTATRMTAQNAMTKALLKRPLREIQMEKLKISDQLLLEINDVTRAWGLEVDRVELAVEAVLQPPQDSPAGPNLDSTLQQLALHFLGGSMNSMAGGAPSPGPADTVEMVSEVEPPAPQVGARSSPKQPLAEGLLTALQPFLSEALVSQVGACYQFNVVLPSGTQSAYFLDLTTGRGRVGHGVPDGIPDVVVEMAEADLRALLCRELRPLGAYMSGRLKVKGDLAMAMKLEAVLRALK
UniProt P61956, whole entry, looked up: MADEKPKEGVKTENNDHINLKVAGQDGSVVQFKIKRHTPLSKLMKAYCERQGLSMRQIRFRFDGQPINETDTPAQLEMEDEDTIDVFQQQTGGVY
UniProt O60506: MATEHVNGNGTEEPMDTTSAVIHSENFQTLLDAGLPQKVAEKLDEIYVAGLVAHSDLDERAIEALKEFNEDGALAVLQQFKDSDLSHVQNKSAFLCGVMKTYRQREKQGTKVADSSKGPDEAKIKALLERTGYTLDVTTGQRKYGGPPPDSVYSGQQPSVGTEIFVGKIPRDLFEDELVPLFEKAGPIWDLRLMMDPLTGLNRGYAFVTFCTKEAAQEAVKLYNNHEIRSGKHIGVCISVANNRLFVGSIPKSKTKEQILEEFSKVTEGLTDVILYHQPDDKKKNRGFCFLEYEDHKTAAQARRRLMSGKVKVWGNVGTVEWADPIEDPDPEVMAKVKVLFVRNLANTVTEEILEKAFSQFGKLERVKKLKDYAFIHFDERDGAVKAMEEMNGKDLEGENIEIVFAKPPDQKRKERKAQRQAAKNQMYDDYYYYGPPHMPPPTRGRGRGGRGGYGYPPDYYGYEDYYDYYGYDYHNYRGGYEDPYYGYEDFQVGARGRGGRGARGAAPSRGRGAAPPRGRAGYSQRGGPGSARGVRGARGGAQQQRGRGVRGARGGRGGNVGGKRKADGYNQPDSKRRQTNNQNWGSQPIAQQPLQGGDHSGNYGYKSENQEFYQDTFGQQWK
UniProt Q5VSL9: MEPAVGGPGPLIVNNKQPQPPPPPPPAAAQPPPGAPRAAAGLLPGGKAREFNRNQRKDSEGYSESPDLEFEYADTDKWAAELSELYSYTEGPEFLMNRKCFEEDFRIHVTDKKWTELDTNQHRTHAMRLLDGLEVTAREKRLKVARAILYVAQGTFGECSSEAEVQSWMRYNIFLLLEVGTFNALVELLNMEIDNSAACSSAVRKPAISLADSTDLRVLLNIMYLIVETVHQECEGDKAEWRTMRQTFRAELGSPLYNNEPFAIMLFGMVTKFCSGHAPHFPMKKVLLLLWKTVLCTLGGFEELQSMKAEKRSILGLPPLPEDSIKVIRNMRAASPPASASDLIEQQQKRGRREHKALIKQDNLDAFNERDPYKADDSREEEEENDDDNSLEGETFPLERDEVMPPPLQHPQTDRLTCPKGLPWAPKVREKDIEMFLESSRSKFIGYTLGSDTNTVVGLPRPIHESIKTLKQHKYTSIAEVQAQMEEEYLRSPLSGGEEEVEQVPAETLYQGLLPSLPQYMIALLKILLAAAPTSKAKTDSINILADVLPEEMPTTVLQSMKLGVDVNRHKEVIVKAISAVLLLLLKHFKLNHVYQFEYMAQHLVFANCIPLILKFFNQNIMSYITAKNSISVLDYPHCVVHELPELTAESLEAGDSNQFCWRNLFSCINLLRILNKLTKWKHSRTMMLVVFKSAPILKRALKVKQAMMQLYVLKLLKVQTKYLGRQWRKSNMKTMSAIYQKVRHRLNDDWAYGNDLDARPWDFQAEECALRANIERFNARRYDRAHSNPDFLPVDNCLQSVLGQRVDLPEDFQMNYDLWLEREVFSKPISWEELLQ
UniProt Q9UJZ1: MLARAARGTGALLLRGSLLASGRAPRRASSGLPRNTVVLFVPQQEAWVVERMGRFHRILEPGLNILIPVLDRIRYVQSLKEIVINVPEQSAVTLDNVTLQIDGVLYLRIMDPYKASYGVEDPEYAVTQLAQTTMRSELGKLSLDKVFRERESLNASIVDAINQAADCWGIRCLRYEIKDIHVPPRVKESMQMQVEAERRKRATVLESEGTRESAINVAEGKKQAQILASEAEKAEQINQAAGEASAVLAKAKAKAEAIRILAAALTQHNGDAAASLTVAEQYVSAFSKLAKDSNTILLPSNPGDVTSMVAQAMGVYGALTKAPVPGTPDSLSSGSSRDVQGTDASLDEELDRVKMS
UniProt P37837: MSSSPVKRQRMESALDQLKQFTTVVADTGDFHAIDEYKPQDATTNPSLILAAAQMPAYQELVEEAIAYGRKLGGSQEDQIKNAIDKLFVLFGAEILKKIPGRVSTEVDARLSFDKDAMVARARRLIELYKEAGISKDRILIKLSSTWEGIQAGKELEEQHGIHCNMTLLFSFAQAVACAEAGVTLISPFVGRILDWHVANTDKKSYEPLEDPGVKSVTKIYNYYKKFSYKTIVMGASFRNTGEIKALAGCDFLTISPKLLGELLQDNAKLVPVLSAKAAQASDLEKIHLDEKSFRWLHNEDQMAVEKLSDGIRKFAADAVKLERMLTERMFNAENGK
UniProt Q86TM6, whole entry, looked up: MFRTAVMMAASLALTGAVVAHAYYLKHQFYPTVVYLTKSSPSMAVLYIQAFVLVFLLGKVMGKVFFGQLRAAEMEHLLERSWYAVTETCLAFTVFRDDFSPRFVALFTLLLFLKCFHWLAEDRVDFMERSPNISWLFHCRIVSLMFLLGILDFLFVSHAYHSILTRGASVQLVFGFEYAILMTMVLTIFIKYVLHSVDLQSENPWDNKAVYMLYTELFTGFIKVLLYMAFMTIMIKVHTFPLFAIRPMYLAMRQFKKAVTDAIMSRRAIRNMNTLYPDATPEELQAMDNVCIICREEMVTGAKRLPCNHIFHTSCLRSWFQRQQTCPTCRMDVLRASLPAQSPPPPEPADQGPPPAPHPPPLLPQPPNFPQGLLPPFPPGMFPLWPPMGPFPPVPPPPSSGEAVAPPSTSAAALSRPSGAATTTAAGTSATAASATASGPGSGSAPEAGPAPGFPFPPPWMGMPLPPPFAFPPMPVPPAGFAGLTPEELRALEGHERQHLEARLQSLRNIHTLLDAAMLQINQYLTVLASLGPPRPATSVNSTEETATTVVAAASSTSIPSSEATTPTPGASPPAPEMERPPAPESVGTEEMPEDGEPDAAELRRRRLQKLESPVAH
UniProt O15260: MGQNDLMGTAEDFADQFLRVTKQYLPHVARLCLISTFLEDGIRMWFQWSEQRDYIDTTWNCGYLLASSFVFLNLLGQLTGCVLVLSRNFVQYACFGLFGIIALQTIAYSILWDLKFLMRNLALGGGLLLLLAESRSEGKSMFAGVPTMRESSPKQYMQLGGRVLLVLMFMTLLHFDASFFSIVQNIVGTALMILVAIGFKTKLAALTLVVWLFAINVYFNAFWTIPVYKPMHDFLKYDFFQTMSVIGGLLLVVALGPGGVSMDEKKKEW
UniProt Q6P1N9: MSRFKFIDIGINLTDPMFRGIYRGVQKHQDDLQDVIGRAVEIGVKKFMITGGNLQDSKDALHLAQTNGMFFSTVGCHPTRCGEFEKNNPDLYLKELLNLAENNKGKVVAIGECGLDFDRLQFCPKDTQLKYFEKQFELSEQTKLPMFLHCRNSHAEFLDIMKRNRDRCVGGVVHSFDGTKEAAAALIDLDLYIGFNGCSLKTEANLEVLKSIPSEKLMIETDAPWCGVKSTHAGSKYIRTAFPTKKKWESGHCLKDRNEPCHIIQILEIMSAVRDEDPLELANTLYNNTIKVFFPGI
UniProt Q6UWL2: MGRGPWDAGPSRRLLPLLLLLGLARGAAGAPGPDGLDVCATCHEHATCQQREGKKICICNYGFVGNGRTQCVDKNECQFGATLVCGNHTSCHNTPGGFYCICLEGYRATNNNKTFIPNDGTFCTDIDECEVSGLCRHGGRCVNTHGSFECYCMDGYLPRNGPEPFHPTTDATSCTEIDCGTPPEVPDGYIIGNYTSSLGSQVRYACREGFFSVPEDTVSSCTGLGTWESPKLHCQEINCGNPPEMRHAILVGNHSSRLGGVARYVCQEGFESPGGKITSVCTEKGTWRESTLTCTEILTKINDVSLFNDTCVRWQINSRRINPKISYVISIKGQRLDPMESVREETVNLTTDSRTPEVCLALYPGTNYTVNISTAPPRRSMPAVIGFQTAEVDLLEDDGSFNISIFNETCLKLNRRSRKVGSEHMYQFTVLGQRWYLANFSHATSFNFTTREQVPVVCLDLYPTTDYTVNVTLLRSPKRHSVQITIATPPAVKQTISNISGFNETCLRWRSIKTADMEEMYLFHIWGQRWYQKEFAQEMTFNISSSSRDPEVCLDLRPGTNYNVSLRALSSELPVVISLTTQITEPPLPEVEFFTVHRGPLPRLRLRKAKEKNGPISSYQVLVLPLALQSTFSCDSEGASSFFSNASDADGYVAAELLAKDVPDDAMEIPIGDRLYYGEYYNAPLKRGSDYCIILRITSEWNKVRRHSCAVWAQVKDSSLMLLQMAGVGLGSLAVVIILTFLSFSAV
UniProt Q8N300: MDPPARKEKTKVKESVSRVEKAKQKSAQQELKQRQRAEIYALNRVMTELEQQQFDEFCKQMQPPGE

compound: c1cn2cc(-c3ccc4cn[nH]c4c3)nc(Nc3ccc(N4CCOCC4)cc3)c2n1 [entospletinib]; assay: log2 fold change, soluble protein after heating vs DMSO (PISA); higher = thermal stabilisation; K562 cells, 10 uM, 30 min; active = over 0.2 and 3.5 SD of the protein, either way, in both replicates (recomputed)
How it was run: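 Values are thermal stability changes relative to control samples and are taken from duplicates. They are stated as log2 fold changes. Before quantification by TMTpro 16plex LC-MS/MS with equalised channel sums, K562 cells at 2×10^6 cells/mL were treated with 10 μM compound for 30 min, heated in aliquots for 3 min across 48°C-58°C, pooled, extracted in PBS with 0.5% NP-40 at 4°C, and centrifuged at 21,000xg for 90 min to give the soluble supernatant.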

log2 fold change, inactive:
SVIP (UniProt Q8NHG7) 0.061
STS (UniProt P08842) -0.029
TARSL2 (UniProt A2RTX5) 0.021
STXBP5L (UniProt Q9Y2K9) -0.038
TAL1 (UniProt P17542) -0.029
TAF12 (UniProt Q16514) -0.005
STOML1 (UniProt Q9UBI4) 0.132
STX4 (UniProt Q12846) -0.039
SUMO2 (UniProt P61956) 0.089
SUMO3 isoform 2 (UniProt P55854) 0.068
SYNCRIP (UniProt O60506) 0.115
TAF10 (UniProt Q12962) 0.012
STRIP1 (UniProt Q5VSL9) -0.097
STX5 (UniProt Q13190) 0.034
TACC3 (UniProt Q9Y6A5) -0.008
STRADA (UniProt Q7RTN6) 0.008
STOML2 (UniProt Q9UJZ1) -0.035
SUGT1 (UniProt Q9Y2Z0) -0.011
TBC1D12 (UniProt O60347) -0.009
STT3A (UniProt P46977) -0.004
STON2 isoform 3 (UniProt Q8WXE9) -0.073
TALDO1 (UniProt P37837) -0.019
SYVN1 (UniProt Q86TM6) -0.07
SURF4 (UniProt O15260) 0.011
SYNJ2BP-COX16, A0A087WYV9 0.062
TATDN1 (UniProt Q6P1N9) -0.014
SYAP1 (UniProt Q96A49) -0.038
SUSD1 isoform 2 (UniProt Q6UWL2) -0.001
SVBP (UniProt Q8N300) 0.064

Two records picked at random from the list so far, as already listed:
log2 fold change, inactive:
TAF12 (UniProt Q16514) -0.005
STON2 isoform 3 (UniProt Q8WXE9) -0.073
